In PubChem BioAssay AID270 (DTP/NCI, 2004) one finds survivor count and T/C data, which are given here for 20 molecules.

Each structure is given as a SMILES string. The list shows only some results of the screen, not a fair sample: it is rich in T/C values a quarter to a half above the control, in often repeated tests (any T/C) and in doses without a T/C. Other doses and runs of a compound stand elsewhere. T/C: endpoint of the treated group in % of that of the vehicle group. Schedule codes are those of the source, taken here to give the interval after Q, in days (D) or hours (H), and the number of doses after X. Some T/C values are followed by the survivors on the day toxicity was checked, most often the fifth; without a count, all were alive then. Some doses have a count of surviving animals in place of a T/C: the source files T/C as zero there, which appears to mark a toxic dose or a test without result, not a measured value. Some survivor counts are full or nearly so, which does not show that the dose was tolerated: survival well below the control is almost never listed, so the zero probably covers shortened survival too. Survivors were counted at the toxicity check, usually on the fifth day, unless a day is given; later deaths do not show. Some entries hold several experiments; the values are given in rising order. Where survival is the endpoint, this PubChem deposit counts one and a half times the control or more as active, and values a quarter to a half above the control carry no call in these data; other NCI protocols may use other cut-offs. Where a SMILES comes first, the peptide text is derived from it. [ ]: non-standard residue; d: D form. The star is where a group is joined. ξ: configuration not given here. ξAsp(βξ-Me) = CC(C(=O)O)C(N)C(=O)O; X4 = CC(N*)C1NC(=O)C2CCCCN2C1=O; ξAbu(3ξ-NH2) = CC(N)C(N)C(=O)O; X3 = CCC(C)CCC/C=C/CC(=O)*

The assay relates to BDF1 mice, s.c. Lewis lung carcinoma, T/C %. Kind of assay: NCI In Vivo Anticancer Drug Screen. Data for tumor model Lewis Lung Carcinoma (subcutaneous) in B6D2F1 (BDF1) mice. How it is done: The antitumor activity of compounds was measured in mice bearing transplantable tumors. Survival or tumor size were measured and the results are expressed as the measurement made in the treated group (T) divided by the measurement made in the vehicle treated control group (C). The tumor model used in this assay is Lewis Lung Carcinoma (subcutaneous) in B6D2F1 (BDF1) mice

The mark [1] stands for this setting: T/C endpoint: median survival time, dose: 25.0 mg/kg/injection, schedule: Q01DX009 (ip), vehicle: olive oil, sesame oil, peanut oil, higher T/C = longer survival.
The mark [2] stands for this setting: T/C endpoint: median survival time, dose: 50.0 mg/kg/injection, schedule: Q01DX009 (ip), vehicle: olive oil, sesame oil, peanut oil, higher T/C = longer survival.

With `COc1cccc(/C=N/C(=S)NC2(C)C3CCC(C3)C2(C)C)c1O` (centres undefined), the survivor count is recorded as 10 of 10 under setting [1]; 10 of 10 under setting [2]; 10 of 10 (T/C endpoint: median survival time, dose: 200.0 mg/kg/injection, schedule: Q01DX009 (ip), vehicle: olive oil, sesame oil, peanut oil, higher T/C = longer survival).

For `CN(Cc1cnc2nc(N)nc(N)c2n1)c1ccc(C(=O)N[C@@H](CCC(=O)O)C(=O)O)cc1`, the survivor count by setting is: (T/C endpoint: mean tumor weight, dose: 3.0 mg/kg/injection, schedule: Q01DX011 (ip), vehicle: alkali diluted with saline, higher T/C = larger tumour) 2 of 10; (T/C endpoint: median survival time, dose: 0.5 mg/kg/injection, schedule: Q01DX009 (ip), vehicle: saline, higher T/C = longer survival) 10 of 10; (T/C endpoint: median survival time, dose: 1.0 mg/kg/injection, schedule: Q01DX009 (ip), vehicle: saline with Tween-80, higher T/C = longer survival) 10 of 10; (T/C endpoint: median survival time, dose: 2.0 mg/kg/injection, schedule: Q01DX009 (ip), vehicle: saline with Tween-80, higher T/C = longer survival) 10 of 10 and 9 of 9; (T/C endpoint: median survival time, dose: 4.0 mg/kg/injection, schedule: Q01DX009 (ip), vehicle: saline with Tween-80, higher T/C = longer survival) 9 of 10 and 10 of 10; (T/C endpoint: median survival time, dose: 4.0 mg/kg/injection, schedule: Q01DX009 (ip), vehicle: saline, higher T/C = longer survival) 10 of 10. The survivor count reads like this: (T/C endpoint: median tumor weight (est.), dose: 2.0 mg/kg/injection, schedule: Q01DX009 (ip), vehicle: saline with Tween-80, higher T/C = larger tumour) 5 of 9; (T/C endpoint: median tumor weight (est.), dose: 4.0 mg/kg/injection, schedule: Q01DX009 (ip), vehicle: saline with Tween-80, higher T/C = larger tumour) 5 of 10. The T/C (T/C endpoint: median survival time, dose: 2.0 mg/kg/injection, schedule: Q01DX009 (ip), vehicle: Klucel (hydroxypropylcellulose) (HPC), higher T/C = longer survival) is 132 % of control.

Take `O=C1c2ccccc2CCc2ccccc21`: the T/C (T/C endpoint: mean tumor weight, dose: 300.0 mg/kg/injection, schedule: Q01DX011 (ip), vehicle: other, evaluated on day 12, higher T/C = larger tumour) was 131 % of control [5 of 6 alive].

As to `CNC(=S)N/N=C/c1ccc([N+](=O)[O-])s1`, for the setting “T/C endpoint: median survival time, dose: 6.25 mg/kg/injection, schedule: Q01DX009 (ip), vehicle: saline with Tween-80, higher T/C = longer survival”, the survivor count is 10 of 10. Also, where the note is “T/C endpoint: median survival time, dose: 12.5 mg/kg/injection, schedule: Q01DX009 (ip), vehicle: saline with Tween-80, higher T/C = longer survival”, the T/C was 127 % of control.

As to `O=[N+]([O-])c1ccc(Cl)c2c([N+](=O)[O-])cccc12`, the survivor count (T/C endpoint: median survival time, dose: 25.0 mg/kg/injection, schedule: Q01DX009 (ip), vehicle: Klucel (hydroxypropylcellulose) (HPC), higher T/C = longer survival) is listed as 10 of 10.

For the molecule `Cc1ccc2c(Nc3ccc(NS(C)(=O)=O)cc3)c3ccccc3nc2c1C`, where the note is “T/C endpoint: median survival time, dose: 20.0 mg/kg/injection, schedule: Q01DX009 (ip), vehicle: other, higher T/C = longer survival”, the T/C was 131 % of control. In addition, the survivor count reads like this: (T/C endpoint: median survival time, dose: 80.0 mg/kg/injection, schedule: Q01DX009 (ip), vehicle: other, higher T/C = longer survival) 10 of 10; (T/C endpoint: median survival time, dose: 160.0 mg/kg/injection, schedule: Q01DX009 (ip), vehicle: other, higher T/C = longer survival) 10 of 10.

Take `Oc1ccccc1/C=N/NC(=S)NC1CC2C=CC1C2` (centres undefined): the survivor count reads like this: under setting [1], 10 of 10; under setting [2], 10 of 10; (T/C endpoint: median survival time, dose: 400.0 mg/kg/injection, schedule: Q01DX009 (ip), vehicle: olive oil, sesame oil, peanut oil, higher T/C = longer survival) 10 of 10.

For `CCCCOP(=O)(OCCCC)c1ccccc1`, the T/C (T/C endpoint: mean tumor weight, dose: 155.0 mg/kg/injection, schedule: Q01DX011 (ip), vehicle: other, evaluated on day 12, higher T/C = larger tumour) is 147 % of control and the T/C (T/C endpoint: mean tumor weight, dose: 350.0 mg/kg/injection, schedule: Q01DX011 (ip), vehicle: other, evaluated on day 12, higher T/C = larger tumour) was 126 % of control.

For the molecule `COC(=O)C[C@](O)(CCC(C)(C)O)C(=O)O[C@@H]1C(OC)=C[C@]23CCCN2CCc2cc4c(cc2[C@H]13)OCO4`, the T/C (T/C endpoint: mean tumor weight, dose: 1.0 mg/kg/injection, schedule: Q01DX011 (ip), vehicle: saline, evaluated on day 12, higher T/C = larger tumour) was 130 % of control [8 of 10 alive]. For the setting “T/C endpoint: mean tumor weight, dose: 4.0 mg/kg/injection, schedule: Q01DX011 (ip), vehicle: saline, higher T/C = larger tumour”, the survivor count is 4 of 10.

Turning to `COC1C(O)=C2C(=O)OC(C)(O)/C=C/C=C\C=C/C=C/C(c3ccccc3)NC(=O)/C=C/C=C/C=C/C=C/C2(C)C1O` (centres undefined), the survivor count is given as 10 of 10 (T/C endpoint: median survival time, dose: 1.25 mg/kg/injection, schedule: Q01DX009 (ip), vehicle: saline, higher T/C = longer survival); 10 of 10 (T/C endpoint: median survival time, dose: 2.5 mg/kg/injection, schedule: Q01DX009 (ip), vehicle: saline, higher T/C = longer survival); 9 of 10 (T/C endpoint: median survival time, dose: 5.0 mg/kg/injection, schedule: Q01DX009 (ip), vehicle: saline, higher T/C = longer survival); 7 of 10 (T/C endpoint: median survival time, dose: 10.0 mg/kg/injection, schedule: Q01DX009 (ip), vehicle: saline, higher T/C = longer survival).

For `CCC(C)CCC/C=C/CC(=O)NC(CC(=O)O)C(=O)NC(C(=O)NC(CC(=O)O)C(=O)NCC(=O)NC(CC(=O)O)C(=O)NCC(=O)NC(C(=O)NC(C(=O)N1CCCC1C(=O)NC(C)C1NC(=O)C2CCCCN2C1=O)C(C)C)C(C)N)C(C)C(=O)O` (stereo not drawn) (X3-D[ξAsp(βξ-Me)]DGDG[ξAbu(3ξ-NH2)]VP-X4; configuration not given here), the survivor count (T/C endpoint: median survival time, dose: 400.0 mg/kg/injection, schedule: Q01DX009 (ip), vehicle: saline + alcohol, higher T/C = longer survival) was 5 of 10.

As for `NCC(O)c1ccc(O)c(O)c1` (centres undefined), the survivor count (T/C endpoint: mean tumor weight, dose: 20.0 mg/kg/injection, schedule: Q01DX011 (ip), vehicle: saline, higher T/C = larger tumour) was 2 of 6.

As for `O=CC(NC(=O)N(CCCl)N=O)C(O)C(O)C(O)CO` (centres undefined), where the note is “T/C endpoint: median survival time, dose: 10.0 mg/kg/injection, schedule: Q01DX001 (ip), vehicle: Klucel (hydroxypropylcellulose) (HPC), higher T/C = longer survival”, the T/C was 130 % of control. Besides, the survivor count is listed as 10 of 10 (T/C endpoint: median survival time, dose: 20.0 mg/kg/injection, schedule: Q01DX001 (ip), vehicle: Klucel (hydroxypropylcellulose) (HPC), higher T/C = longer survival); 10 of 10 (T/C endpoint: median survival time, dose: 27.0 mg/kg/injection, schedule: Q04DX003 (ip), vehicle: saline, higher T/C = longer survival); 10 of 10 (T/C endpoint: median survival time, dose: 40.0 mg/kg/injection, schedule: Q01DX001 (ip), vehicle: Klucel (hydroxypropylcellulose) (HPC), higher T/C = longer survival); 5 of 10, 9 of 10, 10 of 10 (T/C endpoint: median survival time, dose: 80.0 mg/kg/injection, schedule: Q01DX001 (ip), vehicle: Klucel (hydroxypropylcellulose) (HPC), higher T/C = longer survival); 0 of 10, 1 of 10, 2 of 10 (T/C endpoint: median survival time, dose: 160.0 mg/kg/injection, schedule: Q01DX001 (ip), vehicle: Klucel (hydroxypropylcellulose) (HPC), higher T/C = longer survival).

Regarding `c1ccc2ncccc2c1`, the survivor count (T/C endpoint: mean tumor weight, dose: 100.0 mg/kg/injection, schedule: Q01DX011 (ip), vehicle: saline, higher T/C = larger tumour) is on record as 4 of 7 and the survivor count (T/C endpoint: mean tumor weight, dose: 200.0 mg/kg/injection, schedule: Q01DX011 (ip), vehicle: saline, higher T/C = larger tumour) is 0 of 7.

Consider `Nc1ccc(O)cc1`, for which the T/C (T/C endpoint: mean tumor weight, dose: 38.0 mg/kg/injection, schedule: Q01DX011 (ip), vehicle: saline, evaluated on day 12, higher T/C = larger tumour) is 125 % of control.

Turning to `COc1cc(OC)c(OC)cc1/C=C\c1ccnc2ccccc12`, the survivor count (T/C endpoint: median survival time, dose: 200.0 mg/kg/injection, schedule: Q01DX009 (ip), vehicle: Klucel (hydroxypropylcellulose) (HPC), higher T/C = longer survival) was 10 of 10.

`C[CH2][Pb]([CH2]C)([CH2]C)[O]C(=O)COC`: for the setting “T/C endpoint: median survival time, dose: 6.25 mg/kg/injection, schedule: Q01DX009 (ip), vehicle: Klucel (hydroxypropylcellulose) (HPC), higher T/C = longer survival”, the survivor count is given as 9 of 10.

Turning to `Nc1cc2nc3ccccc3sc-2cc1=O`, the survivor count (T/C endpoint: median survival time, dose: 200.0 mg/kg/injection, schedule: Q01DX009 (ip), vehicle: saline with Tween-80, higher T/C = longer survival) is recorded as 10 of 10 and the survivor count (T/C endpoint: median survival time, dose: 400.0 mg/kg/injection, schedule: Q01DX009 (ip), vehicle: saline with Tween-80, higher T/C = longer survival) is given as 0 of 10.

With `CC(C)=CC(=O)OCC[N+](C)(C)C`, the survivor count is 10 of 10 (T/C endpoint: median survival time, dose: 6.25 mg/kg/injection, schedule: Q01DX009 (ip), vehicle: saline, higher T/C = longer survival); 0 of 10 (T/C endpoint: median survival time, dose: 75.0 mg/kg/injection, schedule: Q01DX009 (ip), vehicle: saline, higher T/C = longer survival); 0 of 10 (T/C endpoint: median survival time, dose: 150.0 mg/kg/injection, schedule: Q01DX009 (ip), vehicle: saline, higher T/C = longer survival); 0 of 10 (T/C endpoint: median survival time, dose: 300.0 mg/kg/injection, schedule: Q01DX009 (ip), vehicle: saline, higher T/C = longer survival).

Consider `C[C@]12C=CC(=O)C=C1CC[C@@H]1[C@@H]2[C@@H](O)C[C@@]2(C)[C@H]1CC[C@]2(O)C(=O)CO`, for which the survivor count runs as follows: (T/C endpoint: mean tumor weight, dose: 100.0 mg/kg/injection, schedule: Q01DX011 (sc), vehicle: steroid suspending solution, higher T/C = larger tumour) 3 of 6; (T/C endpoint: mean tumor weight, dose: 200.0 mg/kg/injection, schedule: Q01DX011 (sc), vehicle: steroid suspending solution, higher T/C = larger tumour) 3 of 6; (T/C endpoint: mean tumor weight, dose: 400.0 mg/kg/injection, schedule: Q01DX011 (sc), vehicle: steroid suspending solution, higher T/C = larger tumour) 2 of 6; (T/C endpoint: median survival time, dose: 160.0 mg/kg/injection, schedule: Q02DX009 (ip), vehicle: Klucel (hydroxypropylcellulose) (HPC), higher T/C = longer survival) 10 of 10; (T/C endpoint: median survival time, dose: 640.0 mg/kg/injection, schedule: Q02DX009 (ip), vehicle: Klucel (hydroxypropylcellulose) (HPC), higher T/C = longer survival) 9 of 10.
